{"sequences": {"note": "Protein sequences, listed by entry. Tags and fused reporters are not part of them.", "UniProt P18054, whole entry, looked up": "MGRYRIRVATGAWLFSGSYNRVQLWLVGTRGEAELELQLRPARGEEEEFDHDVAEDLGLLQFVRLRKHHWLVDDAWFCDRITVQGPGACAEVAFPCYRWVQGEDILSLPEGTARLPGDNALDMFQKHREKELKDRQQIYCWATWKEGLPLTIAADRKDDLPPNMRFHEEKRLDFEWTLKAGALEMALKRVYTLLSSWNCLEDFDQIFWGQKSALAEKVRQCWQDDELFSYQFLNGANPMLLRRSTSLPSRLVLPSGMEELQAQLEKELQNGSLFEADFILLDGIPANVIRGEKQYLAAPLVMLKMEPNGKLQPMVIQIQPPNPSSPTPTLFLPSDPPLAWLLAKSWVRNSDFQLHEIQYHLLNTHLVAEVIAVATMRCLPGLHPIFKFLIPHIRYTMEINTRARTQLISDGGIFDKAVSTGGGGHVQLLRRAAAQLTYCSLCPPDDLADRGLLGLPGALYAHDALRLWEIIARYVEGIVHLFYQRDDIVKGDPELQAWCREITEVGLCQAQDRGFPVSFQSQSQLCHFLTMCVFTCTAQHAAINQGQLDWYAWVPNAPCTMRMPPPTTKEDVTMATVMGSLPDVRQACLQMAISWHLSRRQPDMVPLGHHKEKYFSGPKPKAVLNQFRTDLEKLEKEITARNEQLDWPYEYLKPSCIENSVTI"}, "source": "PubChem BioAssay AID1671190", "about": "(National Center for Advancing Translational Sciences (NCATS), 2021)", "note": "Hit rate of the full screen: of about 580,000 compounds, about 6,100 (1.1%) were called active. Inconclusive results, whose numbers are uncertain, are shown with a selection of clear calls. Calls come from the whole dose curve; as a rule, active = well fitted inhibition curve with a large enough effect; inconclusive = small, poorly fitted or top-dose-only effect, or another doubt; inactive = no such curve, though single readings can be large or run the other way. Potencies beside an inconclusive call are fits to weak or partial responses and may not hold up. % is set by controls: 0 for no effect and ±100 for the full control effect; potency is the fitted concentration of half-maximal effect.", "data": [{"target": "Polyunsaturated fatty acid lipoxygenase ALOX12 (Homo sapiens) (UniProt P18054)", "assay": "Primary qHTS assay for inhibitors of human arachidonate 12S-lipoxygenase (ALOX12): Round 2", "settings": "purified 12hLO, xylenol orange hydroperoxide absorbance; activity change, negative = inhibition: at 108 µM (top of the series) unless noted", "procedure,_shortened": "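Purified human 12hLO at 150 nM in 25 mM Hepes, 0.01% Triton X-100, pH 7.0, preincubated 15 min at room temperature with compound. Reaction started with 40 uM arachidonic acid, 30 min at room temperature. Hydroperoxide measured by Fe-xylenol orange, 573/405 nm absorbance ratio.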", "values": [{"smiles": "O=C(/C(C=Nc1ccccc1Cl)=C(/O)c1ccco1)C(F)(F)F", "Potency": "inconclusive: 5.62 µM [inhibitor, full curve, poor fit]"}, {"smiles": "O=S1(=O)C[C@H](N2CC[C@@H](O)C2)[C@@H](COCc2ccccc2)N1", "Potency": "inconclusive: 112 µM [inhibitor, single point]"}, {"smiles": "Cc1nn(-c2ccccc2[N+](=O)[O-])c(C)c1[C@@H]1C=C[C@@H](NS(=O)(=O)c2ccccc2)C1", "Potency": "inconclusive: 79.4 µM [inhibitor, partial curve]"}, {"smiles": "O=C(NC(=S)Nc1ccccc1Cl)c1ccco1", "Potency": "inconclusive: 56.2 µM [inhibitor, full curve, poor fit]"}, {"smiles": "CCCCC(CC)CNC(=O)N1CCN(c2ncc(C(F)(F)F)cc2Cl)CC1", "note": "(stereo unspecified)", "activity change, negative = inhibition": "inactive: -7.35%"}, {"smiles": "CCCc1cc(C(=O)NCc2c(C)ncc3c2CCNC3)n[nH]1", "Potency": "inconclusive: 11.2 µM [inhibitor, full curve]"}, {"smiles": "O=C1Nc2c(ccc(Cl)c2Cl)C(=O)C1(F)c1ccccc1", "note": "(stereo unspecified)", "Potency": "inconclusive: 100 µM [inhibitor, partial curve, poor fit]"}, {"smiles": "CN(C(=S)NCCN1CCOCC1)C(c1ccccc1)c1ccccc1", "Potency": "inconclusive: 14.1 µM [inhibitor, full curve]"}, {"smiles": "CC(C)Sc1oc(-c2ccco2)nc1S(=O)(=O)c1ccccc1", "Potency": "inconclusive: 15.8 µM [inhibitor, full curve]"}, {"smiles": "COc1ccc2cc3c(N)nn(C(=O)C4CCC(C(C)(C)C)CC4)c3nc2c1", "note": "(stereo unspecified)", "activity change, negative = inhibition": "inactive: 12.3% [at 57.4 µM]"}, {"smiles": "OCCN(CC#CC(O)(c1ccccc1)C1CCCCC1)CCO", "note": "(stereo unspecified)", "Potency": "inconclusive: 35.5 µM [inhibitor, partial curve, poor fit]"}, {"smiles": "CCOC(=O)C1=C(C)NC(=O)CC1c1cc2c(cc1Br)OCO2", "note": "(stereo unspecified)", "Potency": "inconclusive: 89.1 µM [inhibitor, single point]"}, {"smiles": "CC(C)C(=O)N1Cc2ccccc2CC2(CCN(Cc3ccc(O)cc3)CC2)C1", "Potency": "inconclusive: 44.7 µM [inhibitor, partial curve, poor fit]"}, {"smiles": "Cc1oc(-c2cccs2)nc1CC(=O)Nc1cccc(C#N)c1", "Potency": "inconclusive: 0.0794 µM [inhibitor, full curve, poor fit]"}, {"smiles": "Cc1cc(C)cc(NC(=O)Cn2nnc(C(=O)NCc3ccco3)c2N)c1", "Potency": "inconclusive: 6.31 µM [inhibitor, partial curve, poor fit]"}, {"smiles": "O=C1c2ccccc2C(=O)N1OCCOCCOCCBr", "Potency": "inconclusive: 8.91 µM [inhibitor, partial curve, poor fit]"}, {"smiles": "COc1ccc(C(=O)OCCN(C)C(C)(C)C)cc1OC", "activity change, negative = inhibition": "inactive: -32.4%"}, {"smiles": "O=C(O)C(c1c[nH]c2ccc(Cl)cc12)N1CCN(CCNc2cc(=O)oc3ccccc23)CC1", "note": "(stereo unspecified)", "Potency": "inconclusive: 50.1 µM [inhibitor, partial curve, poor fit]"}, {"smiles": "O=C(NCCc1c[nH]c2ccc(Cl)cc12)c1ccccc1F", "activity change, negative = inhibition": "inactive: -5.12%"}, {"smiles": "CC(C)(C)c1ccc(C23OC(=O)C(C)(C)C2OC(=O)C3(C)C)cc1", "note": "(stereo unspecified)", "activity change, negative = inhibition": "inactive: 29.2%"}, {"smiles": "Cc1cc(C(=O)Nc2cccc(-c3nc4ccccc4o3)c2)ccc1[N+](=O)[O-]", "activity change, negative = inhibition": "inactive: 5.81%"}, {"smiles": "CC1=C(C(=O)OC(C)(C)C)C(c2ccc(C(C)C)cc2)NC(=S)N1", "note": "(stereo unspecified)", "Potency": "inconclusive: 22.4 µM [inhibitor, full curve, poor fit]"}, {"smiles": "O=C(CCCCCNC(=O)N1CCn2c1nc1ccccc12)N[C@@H](C(=O)O)c1ccccc1", "Potency": "inconclusive: 79.4 µM [inhibitor, single point]"}, {"smiles": "C=CCc1cccc(/C=N/c2ncccc2O)c1O", "Potency": "inconclusive: 39.8 µM [inhibitor, partial curve]"}, {"smiles": "Cc1cccc(C)c1NS(=O)(=O)c1cccc(C(F)(F)F)c1", "Potency": "inconclusive: 44.7 µM [inhibitor, partial curve, poor fit]"}, {"smiles": "COc1ccccc1NC(=O)N1CCC(Cc2ccccc2)CC1", "Potency": "inconclusive: 89.1 µM [inhibitor, partial curve, poor fit]"}, {"smiles": "COc1ccc(Cl)cc1NC(=O)C(C)n1nnc2sc3c(c2c1=O)CCCC3", "note": "(stereo unspecified)", "Potency": "inconclusive: 50.1 µM [inhibitor, full curve, poor fit]"}, {"smiles": "O=C(c1ccccc1F)N1CCN(c2ccc([N+](=O)[O-])c(N3CCOCC3)c2)CC1", "activity change, negative = inhibition": "inactive: -19.8%"}, {"smiles": "CCN1CCN(S(=O)(=O)c2ccc(Oc3ccccc3OC)cc2)CC1", "Potency": "inconclusive: 44.7 µM [inhibitor, partial curve, poor fit]"}, {"smiles": "CC(=O)NC1C(=O)N(CCOc2cccc(C)c2)c2ccc(C)cc21", "note": "(stereo unspecified)", "activity change, negative = inhibition": "inactive: 49.8%"}, {"smiles": "CCN1CCN(c2csc3ccc(Cl)cc3c2=O)CC1", "Potency": "inconclusive: 63.1 µM [inhibitor, partial curve, poor fit]"}, {"smiles": "COc1ccc(OC)c(-c2cc(Cl)c3c(c2)CC(CNC(=O)[C@@H]2CCCN2C(C)=O)O3)c1", "note": "(stereo partly specified)", "Potency": "inconclusive: 100 µM [inhibitor, single point]"}, {"smiles": "COc1ccc(-n2cc(CNCCc3cnc[nH]3)c(-c3cccc(F)c3)n2)cc1", "activity change, negative = inhibition": "inactive: -8.25%"}, {"smiles": "COc1ccc(C2C3=C(CCCC3=O)Nc3c(C#N)cnn32)cc1OC", "note": "(stereo unspecified)", "activity change, negative = inhibition": "inactive: 23.9%"}, {"smiles": "Cn1cc(CNC(=O)C[C@@H]2C[C@H]3O[C@H](CNCc4cnccc4C(F)(F)F)[C@@H](O)[C@H]3O2)cn1", "Potency": "inconclusive: 5.01 µM [inhibitor, full curve, poor fit]"}, {"smiles": "CCN1CCN(C(=O)C2COc3ccccc3O2)CC1", "note": "(stereo unspecified)", "activity change, negative = inhibition": "inactive: -12.4%"}, {"smiles": "Cc1ccc(-n2nnnc2SCC(=O)c2ccc3c(c2)NC(=O)CO3)c(C)c1", "Potency": "inconclusive: 10 µM [inhibitor, partial curve]"}, {"smiles": "C=CCn1c(C)cc(C(=O)CSc2nnc(NCc3ccccc3)s2)c1C", "activity change, negative = inhibition": "inactive: 0.704%"}, {"smiles": "Cc1noc([C@@H]2CN(C(=O)COc3ccccc3)C[C@H]2CO)n1", "activity change, negative = inhibition": "inactive: 28.5%"}, {"smiles": "CCCCCCCOC(=O)C[N+](C)(C)CCOC1CC2CCC1(C)C2(C)C", "note": "(stereo unspecified)", "Potency": "inconclusive: 44.7 µM [inhibitor, partial curve, poor fit]"}, {"smiles": "NC(=O)CN1CCCC(C(=O)O)C1", "note": "(stereo unspecified)", "Potency": "inconclusive: 0.282 µM [inhibitor, full curve, poor fit]"}, {"smiles": "COc1ccc(CCNC(=O)c2cccc3c(=O)c(C)c(-c4ccccc4)oc23)cc1", "Potency": "inconclusive: 141 µM [inhibitor, single point]"}, {"smiles": "CSc1ccc(S(=O)(=O)NCC(=O)OCC(=O)N(C)Cc2ccccc2)cc1[N+](=O)[O-]", "Potency": "inconclusive: 89.1 µM [inhibitor, single point]"}, {"smiles": "Cc1cc2c(c(=O)n1Cc1cccs1)C(c1cccs1)C(C#N)=C(N)O2", "note": "(stereo unspecified)", "Potency": "inconclusive: 39.8 µM [inhibitor, partial curve, poor fit]"}, {"smiles": "O=C(c1ccco1)N1Cc2[nH]cnc2C[C@H]1c1nc(-c2ccc(F)cc2)no1", "activity change, negative = inhibition": "inactive: 27.3% [at 176 µM]"}, {"smiles": "CN1c2ccsc2C(O)=C(C(=S)Nc2ccc(F)c(Cl)c2)S1(=O)=O", "Potency": "inconclusive: 44.7 µM [inhibitor, single point]"}, {"smiles": "Cc1ccc2c(c1)C(c1ccc(F)cc1)N(C(=O)C(C)C)CC(=O)N2", "note": "(stereo unspecified)", "activity change, negative = inhibition": "inconclusive: -32.9% [inhibitor]"}, {"smiles": "CCN(CC)S(=O)(=O)c1ccc(NC(=O)COc2ncnc3ccc(Br)cc23)cc1", "Potency": "inconclusive: 35.5 µM [inhibitor, partial curve, poor fit]"}, {"smiles": "Cc1ccccc1NC(=O)c1cnc2c(c1)N(C(=O)Cc1cn(C)c3ccccc13)CCC2", "Potency": "inconclusive: 11.2 µM [inhibitor, full curve]"}, {"smiles": "CCN1C(=O)/C(=C\\c2ccc(-c3ccc([N+](=O)[O-])cc3OC)o2)SC1=Nc1cccc(C(=O)O)c1", "Potency": "inconclusive: 50.1 µM [inhibitor, partial curve, poor fit]"}, {"smiles": "CNc1nc(N)c([N+](=O)[O-])c(NCC2CCCO2)n1", "note": "(stereo unspecified)", "activity change, negative = inhibition": "inactive: 260%"}, {"smiles": "COCc1cc(=O)[nH]c(Nc2nc3ccc(C)cc3o2)n1", "activity change, negative = inhibition": "inactive: 1.86%"}, {"smiles": "CCOc1ccccc1N1C(=O)c2ccc(C(=O)O)cc2C1=O", "Potency": "inconclusive: 100 µM [inhibitor, single point]"}, {"smiles": "O=c1oc2ccc3ccccc3c2cc1-c1nnc(Nc2ccccc2)s1", "Potency": "inconclusive: 79.4 µM [inhibitor, partial curve, poor fit]"}, {"smiles": "Cc1ccc(NC(=O)CCc2c(C)nn(-c3ccc(N4CCCC4)nn3)c2C)cc1", "Potency": "inconclusive: 44.7 µM [inhibitor, partial curve, poor fit]"}, {"smiles": "NC(=O)c1ccsc1NC(=O)COC(=O)c1nc(Cl)ccc1Cl", "activity change, negative = inhibition": "inactive: -0.0743%"}, {"smiles": "COc1ccc(S(=O)(=O)c2c(C)c(C)n(C3CCCC3)c2NC(C)=O)cc1", "activity change, negative = inhibition": "inactive: -6.39%"}, {"smiles": "CCNC(=O)NC(=O)CSc1ccc(S(=O)(=O)N(C)C2CCCCC2)cn1", "Potency": "inconclusive: 22.4 µM [inhibitor, single point]"}, {"smiles": "CCNC(=O)CCSc1nnc(-c2ccc(O)cc2)o1", "Potency": "inconclusive: 56.2 µM [inhibitor, partial curve, poor fit]"}, {"smiles": "Cc1ccc(-c2csc3nc(SCC(=O)N(C)C)n(Cc4ccccc4)c(=O)c23)cc1", "activity change, negative = inhibition": "inactive: 1.01%"}, {"smiles": "COc1ccc(C2=CC3=C(Br)C(=O)C(C)(OC(=O)c4cccs4)C(=O)C3=CO2)cc1", "note": "(stereo unspecified)", "Potency": "active: 6.31 µM"}, {"smiles": "COc1cc(Br)cc(CN2CCN(C/C=C/c3ccccc3)CC2)c1O", "Potency": "active: 14.1 µM"}, {"smiles": "CN(C)c1cccc(C(=O)N/N=C2/CCSc3ccc(F)cc32)c1", "Potency": "inconclusive: 17.8 µM [inhibitor, full curve, poor fit]"}, {"smiles": "Cc1ccc(C)c(-c2csc(NC(=O)CSc3nc4ccccc4o3)n2)c1", "activity change, negative = inhibition": "inactive: -13.6%"}, {"smiles": "Fc1ccccc1-c1cc2cc3c(cc2cn1)OCO3", "Potency": "inconclusive: 39.8 µM [inhibitor, partial curve, poor fit]"}, {"smiles": "CSc1nc2oc3c(c2c2nncn12)CC(C)(C)SC3", "Potency": "inconclusive: 35.5 µM [inhibitor, single point]"}]}]}
